Assay results taken from patent US20250136720A1.

Biological target: Human CD137 (4-1BB, TNFRSF9) (human)
Assay: flow cytometry, CHO cells expressing human CD137, PE anti-human IgG-Fc

| binding | Binder |
| --- | --- |
| binds | CD137 #B13 (antibody, human IgG1, V domains shown) VH: QVQLQQPGAELVKPGASVKLSCKASGYTFTNFWINWVKQRPGQALEWIGNIYPGNDNTNYNGNFKTKATLTVDRSSSTAYMHLSSLTSKDSAVYYCARGQLGLDYWGQGTTLTVSS VL: DILLTQSPAILSVSPGERVSFSCRASQNIGTTIHWYHQRTNGSPRLLIKFASESISGIPSRFSGSGSGTDFTLSINSVESEDFADYYCQQSNSWPFTFGSGTKLEIK |
| binds | CD137 #B27 (antibody, human IgG1, V domains shown) VH: QVQLQQSGAELVRPGASVKISCKAFGYTFTNHHINWVKQRPGQGLDWIGYINPYNDYSGYNQKFKGRATLTVDKSSNTAYMELSSLTSEDSAVYYCATPGTWEGYYFDYWGQGTTLTVSS VL: DVVMTQTPLSLPVSLGDQASISCRSSQSLVHSNGNTYLEWYLQKPGQSPKVLIYMVSNRFSGVPDRFSGSGSGTDFTLKISRVEAEDLGVYYCFQGSHIPLTFGAGTKLELK |
| binds | CD137 #B20 (antibody, human IgG1, V domains shown) VH: EVKLVESEGGLVQPGSSMKLSCTASGFTFSDFYMAWVRQVPEKGLEWVANINYDGSSTYYLDSLKSRFIISRDNARNILYLQMSSLKSEDTATYYCAREGDEGWYFDVWGAGTTVTVSS VL: DIVMTQSHKFMSTSVGDRVSITCKASQDVSTAVAWYQQKPGQSPKLLIYSASYRYTGVPDRFTGSGSGTDFTFTISSVQAEDLAVYYCQQHYSNPWTFGGGTKLEIK |
| binds | CD137 #B21 (antibody, human IgG1, V domains shown) VH: EVKLVESEGGLVQPGSSMKLSCTASGFTFSDFYMAWVRQVPEKGLEWVANINYDGSSTYYLDSLKSRFIISRDNARNILYLQMSSLKSEDTATYYCAREGDEGWYFDVWGAGTTVTVSS VL: DIVMTQSHKFMSTSVGDRVSITCKASQDVSTAVAWYQQKPGQSPKLLIYSASYRYTGVPDRFTGSGSGTDFTFTISSVQAEDLAVYYCQQHYSNPWTFGGGTKLEIK |
| binds | CD137 #B19 (antibody, human IgG1, V domains shown) VH: QVQLKQSGPGLVPPSQSLSITCTVSGFSLSSYGVHWVRQSPGKGLEWLGVIWSGGNTDFNAAFVSRLSISTEISESQVFFRMNSLQADDTAIYYCARNGPQYYFAMDYWGQGTSVTVSS VL: DIVLTQSPASLTVSLGQRATISCRANKSVSTSGYSYMHWHQQKPGQPPKLLIYLASNLESGVPARFSGSGSGTDFTLNIHPVEEEDAATYYCQHSRELPLTFGAGTKLELK |
| binds | CD137 #B17 (antibody, human IgG1, V domains shown) VH: EVQLQQSGPELVKPGASVKMSCKASGYTFTYYVMHWVKQKPGQGLEWIGYINPYNDGTKYNEKFKGKATLTSDKSSSTAYMELSSLTSEDSAVYYCAPGSVDYWGQGTTLTVSS VL: DIVMTQSQKFMSTSVGDRVSITCKASQNVGTSVAWYQQKSGHSPKLLIYSASNRNTGVPDRFTGSGSGTDFTLTISNMQSEDLADYFCQQYSTYPLTFGSGTKLEIK |
| binds | CD137 #B28 (antibody, human IgG1, V domains shown) VH: QVQLQQSGPQLIRPGASVKISCKASGYSFTGYWIHWVKQRPGQGLEWIGMIDPSDSETRLNQKFKDKATLTVDKSSTTAYMQLSSPTSEDSAVFYCARYRNYGYDGFAHWGQGTLVTVSA VL: DIVMTQSPSSLTVTAGEKVTMSCKSSQSLLNSGNEKNYLAWYQQKPGQPPKLLIYWASTRESGVPDRFTGSGSGTDFTLTISSVQTEDLAVYHCQNDYSLPLTFGAGTKLELK |
| binds | CD137 #B31 (antibody, human IgG1, V domains shown) VH: QVQLQQSGPQLIRPGASVKISCKASGYSFTGYWIHWVKQRPGQGLEWIGMIDPSDSETRLNQKFKDKATLTVDKSSTTAYMQLSSPTSEDSAVFYCARYRNYGYDGFAHWGQGTLVTVSA VL: DIVMTQSPSSLTVTAGEKVTMSCKSSQSLLNSGNEKNYLAWYQQKPGQPPKLLIYWASTRESGVPDRFTGSGSGTDFTLTISSVQTEDLAVYHCQNDYSLPLTFGAGTKLELK |
| binds | CD137 #B30 (antibody, human IgG1, V domains shown) VH: QVQLQQSGPQLIRPGASVKISCKASGYSFTGYWIHWVKQRPGQGLEWIGMIDPSDSETRLNQKFKDKATLTVDKSSTTAYMQLSSPTSEDSAVFYCARYRNYGYDGFAHWGQGTLVTVSA VL: DIVMTQSPSSLTVTAGEKVTMSCKSSQSLLNSGNEKNYLAWYQQKPGQPPKLLIYWASTRESGVPDRFTGSGSGTDFTLTISSVQTEDLAVYHCQNDYSLPLTFGAGTKLELK |

Results are given in words; binding and its absence hold for the method and conditions named. Binding calls can cover weak binding; strength is not graded here.
